PubChem BioAssay AID504793 | Drosophila RNAi Screening Center – 2011

- Screen: 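Knock-downs allowing continued mitosis even though DNA is damaged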 (primary screen)
- System: Drosophila S2R+ cells
- Reagent: long dsRNA against Drosophila genes, about 0.25 µg dsRNA per well
- Time to read-out: 4 days of dsRNA, then 4 hours of drug before read-out
- Conditions: doxorubicin 0.5 µM for 4 hours to cause double-strand breaks, in cells also given a low, harmless dose of dsRNA against nbs to sensitise the assay
- Measured: 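Per-well count of mitotic cells stained for phospho-histone H3 after doxorubicin exposure, used as mitotic index; counts are raw and not normalised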
- Reading the numbers: mitotic cells: higher = more cells in mitosis, weaker G2 arrest
- Hit rule: 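Genes are called active only when high mitotic counts were reproduced with independent dsRNAs and mitosis was checked for delay without damage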
- Meaning of the calls: active = confirmed in follow-up tests; inactive = not confirmed
The screen tested about 23,000 reagents; below is an unselected part of those that have a named target and a result. Over the whole deposit, 62 (0.27%) are marked active. 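Calls come from follow-up tests whose scores are not deposited, so confirmed genes may have low counts here; counts are not normalised per plate.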 The raw values are shown without normalisation. Names joined by + are all predicted targets of the reagent.

gene knocked down	amplicon	mitotic cells, replicate 1	outcome
Mics1 (GeneID 40898)	DRSC12537	4	inactive
CG31141 (GeneID 318605)	DRSC13646	17	inactive
CG31141 (GeneID 318605)	DRSC29508	4	inactive
CG10428 (GeneID 35150)	DRSC02054	3	inactive
CG12177 (GeneID 32326)	DRSC19437	9	inactive
CG12177 (GeneID 32326)	DRSC21524	5	inactive
CG12177 (GeneID 32326)	DRSC29474	7	inactive
CG9775 (GeneID 40576)	DRSC12330	4	inactive
CG9775 (GeneID 40576)	DRSC22667	15	inactive
CG5323 (GeneID 37137)	DRSC06929	6	inactive
CG2906 (GeneID 35753)	DRSC06841	8	inactive
CG6652 (GeneID 39905)	DRSC10686	6	inactive
CG6652 (GeneID 39905)	DRSC28835	8	inactive
Prosalpha7 (GeneID 36018)	DRSC07516	93	inactive
Prosalpha7 (GeneID 36018)	DRSC29365	119	inactive
CG31674 (GeneID 318878)	DRSC03208	11	inactive
CG31674 (GeneID 318878)	DRSC27032	8	inactive
CG33255 (retired record) + hpRNA:CR32205	DRSC09610	10	inactive
CG33255 (retired record) + hpRNA:CR32205	DRSC09611	8	inactive
Taf10 (GeneID 33469)	DRSC30091	2	inactive
Fadd (GeneID 42594)	DRSC14122	5	inactive
ERp60 (GeneID 36270)	DRSC07309	8	inactive
ERp60 (GeneID 36270)	DRSC24471	6	inactive
CG7342 (GeneID 42335)	DRSC16230	1	inactive
CG15537 (GeneID 43614)	DRSC15073	6	inactive
CG15537 (GeneID 43614)	DRSC25589	7	inactive
Rat1 (GeneID 33964)	DRSC02044	5	inactive
CG31345 (GeneID 41576)	DRSC14193	7	inactive
CG31345 (GeneID 41576)	DRSC14847	5	inactive
CG13658 (GeneID 43055)	DRSC14659	10	inactive
CG13658 (GeneID 43055)	DRSC25434	7	inactive
CAH2 (GeneID 39390)	DRSC10746	6	inactive
CG4763 (GeneID 37771)	DRSC04009	9	inactive
CG4763 (GeneID 37771)	DRSC04487	14	inactive
Shawl (GeneID 5740840)	DRSC02209	6	inactive
Shawl (GeneID 5740840)	DRSC02748	5	inactive
Shawl (GeneID 5740840)	DRSC24307	6	inactive
rux (GeneID 31535)	DRSC18829	2	inactive
CG5890 (GeneID 43126)	DRSC15909	4	inactive
CG33296 (GeneID 2768941)	DRSC00998	1	inactive
CG33296 (GeneID 2768941)	DRSC23839	17	inactive
loqs (GeneID 34751)	DRSC02997	4	inactive
CG32457 (GeneID 318040)	DRSC21722	5	inactive
mip120 (GeneID 36499)	DRSC06960	11	inactive
mip120 (GeneID 36499)	DRSC29182	6	inactive

The list goes on; the last 9 above are carried over.
gene knocked down	amplicon	mitotic cells, replicate 1	outcome
Shawl (GeneID 5740840)	DRSC24307	6	inactive
rux (GeneID 31535)	DRSC18829	2	inactive
CG5890 (GeneID 43126)	DRSC15909	4	inactive
CG33296 (GeneID 2768941)	DRSC00998	1	inactive
CG33296 (GeneID 2768941)	DRSC23839	17	inactive
loqs (GeneID 34751)	DRSC02997	4	inactive
CG32457 (GeneID 318040)	DRSC21722	5	inactive
mip120 (GeneID 36499)	DRSC06960	11	inactive
mip120 (GeneID 36499)	DRSC29182	6	inactive
Ir94c (GeneID 318727)	DRSC13539	8	inactive
CG7741 (GeneID 36208)	DRSC07035	7	inactive
CG42369 (GeneID 33894)	DRSC03244		inactive
Col4a1 (GeneID 33727)	DRSC03291	7	inactive
Su(var)3-7 (GeneID 41627)	DRSC16872	10	inactive
Nmdar2 (GeneID 31107)	DRSC18183	13	inactive
Nmdar2 (GeneID 31107)	DRSC18511	11	inactive
Nmdar2 (GeneID 31107)	DRSC18569	8	inactive
Lrp4 (GeneID 32552)	DRSC20118	6	inactive
CG14451 (GeneID 40488)	DRSC11708	4	inactive
CG14451 (GeneID 40488)	DRSC26512	8	inactive
CG31988 (GeneID 326182)	DRSC22491	5	inactive
CG4610 (GeneID 37571)	DRSC04477	7	inactive
CG4610 (GeneID 37571)	DRSC22397	6	inactive
CG4610 (GeneID 37571)	DRSC29602	4	inactive
niki (GeneID 42959)	DRSC14285	9	inactive
TkR99D (GeneID 43551)	DRSC16881	8	inactive
CG3546 (GeneID 31389)	DRSC18308	14	inactive
CG3546 (GeneID 31389)	DRSC23647	4	inactive
CG43896 (GeneID 39360)	DRSC10754	9	inactive
CG43896 (GeneID 39360)	DRSC26965	4	inactive
CG3701 (retired record) (GeneID 37568)	DRSC04408	9	inactive
CG3701 (retired record) (GeneID 37568)	DRSC04409	6	inactive
cdm (GeneID 42171)	DRSC16213	10	inactive
CG12493 (GeneID 38575)	DRSC08279	8	inactive
CG12493 (GeneID 38575)	DRSC25535	7	inactive
Nsun2 (GeneID 45064)	DRSC18662	17	inactive
Nsun2 (GeneID 45064)	DRSC28657	7	inactive
CG10948 (GeneID 39459)	DRSC09806	4	inactive
veil (GeneID 36968)	DRSC06892	6	inactive
